No constants are given. Whether binding was seen depends on the method and setting. Binding seen in cells or lysates may run through a third protein. Some results given as binding are weak or reduced against the parent protein; the word gives no strength. Blank lines part the entries; values can stand above or below the molecule they belong to.
Legend:
[1] = biological target: C-terminal 3X-FLAG tagged APOBEC3A wild-type (human) (UniProt P31941); experiment: co-IP; reciprocal: preconjugated α-FLAG M2 agarose; total cell extract (sonication) of HeLa cells transfected with APOBEC3A-3XFLAG for 24 h; 2 h at 4°C; western blot; unconjugated control agarose as negative control
[2] = biological target: RPA194 (human (endogenous in HeLa)) (UniProt O95602); experiment: co-IP; α-RPA194 antibody on protein A or protein A/G agarose beads; total cell extract (sonication) of HeLa cells transfected with APOBEC3A-3XFLAG for 24 h; 2 h at 4°C; western blot; unconjugated beads as negative control

Sequences of proteins named here, by UniProt entry; tags and fusion partners are left off. A change or cut given only in a name is not applied to a line headed by its entry.
UniProt P31941: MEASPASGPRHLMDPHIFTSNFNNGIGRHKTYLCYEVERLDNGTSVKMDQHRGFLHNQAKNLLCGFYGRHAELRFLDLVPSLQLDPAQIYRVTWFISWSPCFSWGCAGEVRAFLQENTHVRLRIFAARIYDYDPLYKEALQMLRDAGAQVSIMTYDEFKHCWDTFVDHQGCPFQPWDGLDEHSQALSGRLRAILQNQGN
UniProt O95602: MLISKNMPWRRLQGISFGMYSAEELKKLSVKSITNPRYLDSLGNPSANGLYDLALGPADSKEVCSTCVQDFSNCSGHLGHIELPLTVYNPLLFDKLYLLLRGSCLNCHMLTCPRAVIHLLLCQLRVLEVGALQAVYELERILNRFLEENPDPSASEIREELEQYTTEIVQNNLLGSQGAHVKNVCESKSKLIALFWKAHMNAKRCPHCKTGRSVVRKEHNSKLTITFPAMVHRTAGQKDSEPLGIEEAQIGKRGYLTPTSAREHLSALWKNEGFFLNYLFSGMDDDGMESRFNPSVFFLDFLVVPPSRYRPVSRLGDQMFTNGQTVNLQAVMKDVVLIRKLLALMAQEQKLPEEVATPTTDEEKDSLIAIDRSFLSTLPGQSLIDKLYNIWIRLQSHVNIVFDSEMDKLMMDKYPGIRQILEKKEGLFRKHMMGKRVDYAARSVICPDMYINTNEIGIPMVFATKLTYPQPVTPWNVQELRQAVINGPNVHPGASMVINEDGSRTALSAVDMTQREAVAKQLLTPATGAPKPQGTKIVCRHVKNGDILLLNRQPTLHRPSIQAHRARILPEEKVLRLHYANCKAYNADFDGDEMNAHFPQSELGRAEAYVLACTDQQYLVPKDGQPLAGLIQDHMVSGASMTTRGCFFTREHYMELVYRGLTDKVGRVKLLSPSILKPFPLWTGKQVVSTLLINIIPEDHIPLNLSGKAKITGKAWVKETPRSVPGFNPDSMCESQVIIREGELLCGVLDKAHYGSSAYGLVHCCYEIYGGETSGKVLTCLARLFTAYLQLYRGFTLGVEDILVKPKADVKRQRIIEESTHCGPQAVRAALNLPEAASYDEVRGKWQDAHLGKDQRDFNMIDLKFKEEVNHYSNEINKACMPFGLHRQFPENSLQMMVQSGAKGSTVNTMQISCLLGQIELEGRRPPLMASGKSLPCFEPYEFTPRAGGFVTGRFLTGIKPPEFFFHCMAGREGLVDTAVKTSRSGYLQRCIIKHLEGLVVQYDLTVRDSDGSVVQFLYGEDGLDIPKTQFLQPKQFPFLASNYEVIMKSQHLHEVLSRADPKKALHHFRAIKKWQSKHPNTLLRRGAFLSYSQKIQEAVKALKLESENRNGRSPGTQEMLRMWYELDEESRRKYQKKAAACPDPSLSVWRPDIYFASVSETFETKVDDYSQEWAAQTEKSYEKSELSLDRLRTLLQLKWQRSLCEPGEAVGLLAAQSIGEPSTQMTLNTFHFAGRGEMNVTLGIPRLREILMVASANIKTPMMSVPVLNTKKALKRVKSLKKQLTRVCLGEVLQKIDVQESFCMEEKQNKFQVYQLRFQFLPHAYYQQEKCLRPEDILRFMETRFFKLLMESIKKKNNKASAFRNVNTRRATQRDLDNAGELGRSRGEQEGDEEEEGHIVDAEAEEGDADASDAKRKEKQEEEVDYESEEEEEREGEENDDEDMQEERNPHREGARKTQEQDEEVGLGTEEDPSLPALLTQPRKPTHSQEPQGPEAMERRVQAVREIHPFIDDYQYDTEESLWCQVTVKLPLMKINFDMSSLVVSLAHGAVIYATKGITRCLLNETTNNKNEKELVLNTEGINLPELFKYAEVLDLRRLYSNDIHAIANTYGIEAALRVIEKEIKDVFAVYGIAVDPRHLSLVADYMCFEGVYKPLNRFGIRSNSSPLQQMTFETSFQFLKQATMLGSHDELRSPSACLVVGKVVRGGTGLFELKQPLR
UniProt Q13263: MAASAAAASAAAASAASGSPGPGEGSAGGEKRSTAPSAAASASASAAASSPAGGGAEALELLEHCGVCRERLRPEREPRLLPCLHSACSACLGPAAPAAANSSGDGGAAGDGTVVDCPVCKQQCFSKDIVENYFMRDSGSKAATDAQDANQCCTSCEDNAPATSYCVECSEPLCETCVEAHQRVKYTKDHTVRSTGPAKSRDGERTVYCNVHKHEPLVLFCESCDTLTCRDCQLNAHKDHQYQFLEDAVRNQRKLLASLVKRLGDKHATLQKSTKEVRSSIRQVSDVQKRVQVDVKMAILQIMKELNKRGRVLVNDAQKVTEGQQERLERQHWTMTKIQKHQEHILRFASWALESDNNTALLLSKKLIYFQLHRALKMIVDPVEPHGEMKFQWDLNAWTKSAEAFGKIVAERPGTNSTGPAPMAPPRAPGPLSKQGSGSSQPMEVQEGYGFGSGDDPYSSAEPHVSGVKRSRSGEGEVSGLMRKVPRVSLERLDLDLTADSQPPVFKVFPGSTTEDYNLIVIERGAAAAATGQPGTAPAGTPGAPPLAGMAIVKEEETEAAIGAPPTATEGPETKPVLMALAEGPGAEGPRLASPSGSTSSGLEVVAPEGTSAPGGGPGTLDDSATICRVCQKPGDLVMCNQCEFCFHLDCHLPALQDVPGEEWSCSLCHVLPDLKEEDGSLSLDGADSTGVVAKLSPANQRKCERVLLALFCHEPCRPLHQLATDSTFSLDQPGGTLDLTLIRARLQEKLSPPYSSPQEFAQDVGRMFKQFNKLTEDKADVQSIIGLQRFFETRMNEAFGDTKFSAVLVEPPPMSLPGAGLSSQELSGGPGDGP

- binding [1]: binds
Molecule: RPA194 (from UniProt O95602 1-1720)

- binding [2]: binds
Molecule: C-terminal 3X-FLAG tagged APOBEC3A wild-type (from UniProt P31941-1 1-199) (enzyme)

- binding [1]: binds
- binding [2]: binds
Molecule: KAP1 (TRIM28) (from UniProt Q13263 1-835)

- binding [1]: binds
- binding [2]: binds
B1: fibrillarin (protein, UniProt P22087 1-321)
chain: MKPGFSPRGGGFGGRGGFGDRGGRGGRGGFGGGRGRGGGFRGRGRGGGGGGGGGGGGGRGGGGFHSGGNRGRGRGGKRGNQSGKNVMVEPHRHEGVFICRGKEDALVTKNLVPGESVYGEKRVSISEGDDKIEYRAWNPFRSKLAAAILGGVDQIHIKPGAKVLYLGAASGTTVSHVSDIVGPDGLVYAVEFSHRSGRDLINLAKKRTNIIPVIEDARHPHKYRMLIAMVDVIFADVAQPDQTRIVALNAHTFLRNGGHFVISIKANCIDSTASAEAVFASEVKKMQQENMKPQEQLTLEPYERDHAVVVGVYRPPPKVKN
